PMC6072501 (MedChemComm, 2017)

Experiment: Fmoc solid-phase peptide synthesis; HBTU; PyAop for DTrp to NMePhe
Details: whole synthesis, 220 nm

Substance	final HPLC purity
PEPTIDE1{R.[dW].[NMePhe].[dW].L.M.[am]}$$$$V2.0	> 95%
PEPTIDE1{[NMeDPhe].[dW].F.[DTrp(N-tert-prenyl)].L.[am]}$$$$V2.0	> 95%
PEPTIDE1{[NMeDPhe].[dW].F.[dW].L.[am]}$$$$V2.0	> 95%

Strings that start with PEPTIDE1 are HELM notation: dots part the residues, brackets hold end groups and non-standard residues. One purity is given for all peptides; the source may state it once.
